The results in this text go back to the supplement of paper PMC10735217.

Structures can show the parent of a compound that is named as a salt. The list shows a part of the results. Single values are uncertain here, since repeats match poorly.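 In a drug-repurposing library screen, luminescence reads luciferase driven by eight TEAD-binding elements, stably integrated into human kidney-derived cells. Compounds scoring over five robust Z scores above the plate mean are called hits.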

The test system of this assay is HEK293A TEAD-LUC reporter. In words: TEAD-luciferase reporter activity (YAP activation), robust Z score vs plate; higher = stronger YAP/TEAD activation. The settings on record: 24 h. On the technique in general: A reporter such as luciferase makes a cellular process visible.

`O=C1CC2CCCC(C1)N2C(=O)c1cccc(Cl)c1`: the TEAD-luciferase reporter activity runs as follows: (compound concentration: 200 nM) inactive: 1.11; (compound concentration: 10 uM) inactive: 1.17.
Consider `CC(C)C[C@H](NC(=O)[C@H](CC(C)C)NC(=O)[C@H](Cc1ccccc1)NC(=O)[C@@H](N)CO)C(=O)N[C@@H](CCCNC(=N)N)C(=O)N[C@@H](CC(N)=O)C(=O)N1CCC[C@H]1C(=O)N[C@@H](CC(N)=O)C(=O)N[C@@H](CC(=O)O)C(=O)N[C@@H](CCCCN)C(=O)N[C@@H](Cc1ccc(O)cc1)C(=O)N[C@@H](CCC(=O)O)C(=O)N1CCC[C@H]1C(=O)N[C@@H](Cc1ccccc1)C(=O)O`, for which the TEAD-luciferase reporter activity reads like this: (compound concentration: 200 nM) inactive: 0.0427; (compound concentration: 2 uM) inactive: 0.603; (compound concentration: 10 uM) inactive: -2.39.
As to `CC(C)NCC(O)c1ccc2ccccc2c1` (centres undefined), the TEAD-luciferase reporter activity reads like this: (compound concentration: 200 nM) inactive: 2.7; (compound concentration: 2 uM) inactive: -1.19; (compound concentration: 10 uM) inactive: -0.698.
For the compound `CCOP(=O)(CCCCCCOc1ccc(OC)c(F)c1)OCC`, the TEAD-luciferase reporter activity by setting is: (compound concentration: 200 nM) inactive: -1.66; (compound concentration: 2 uM) inactive: 1.39; (compound concentration: 10 uM) inactive: 0.381.
For `CN1CCN(NC(=O)CN2CCN(C(=O)c3cc(C(F)(F)F)cc(C(F)(F)F)c3)[C@H](Cc3c[nH]c4ccccc34)C2)CC1`, the TEAD-luciferase reporter activity reads like this: (compound concentration: 200 nM) inactive: 2.25; (compound concentration: 2 uM) inactive: -1.11; (compound concentration: 10 uM) inactive: -0.829.
As for `CCc1c(C)nc2cccc(C)n2c1=O` [Chinoin-150], the TEAD-luciferase reporter activity runs as follows: (compound concentration: 200 nM) active: 7.34; (compound concentration: 2 uM) inactive: 0.202; (compound concentration: 10 uM) inactive: 0.119.
In the case of `O=C(NCCNCC(O)COc1ccc(O)cc1)N1CCOCC1` (centres undefined) [xamoterol fumarate], where the note is “compound concentration: 2 uM”, the TEAD-luciferase reporter activity was inactive: -1.79.
As for `O=C(NCCNCC(O)COc1ccc(O)cc1)N1CCOCC1` (centres undefined) [Xamoterol hemifumarate], the TEAD-luciferase reporter activity reads like this: (compound concentration: 200 nM) inactive: -0.439; (compound concentration: 10 uM) inactive: -0.61.
In the case of `Cc1cc(N2CCN([C@@H]3CN[C@H](C(=O)N4CCSC4)C3)CC2)n(-c2ccccc2)n1` [Teneligliptin Hydrobromide], the TEAD-luciferase reporter activity was inactive: -0.155 (compound concentration: 200 nM) and inactive: -0.519 (compound concentration: 10 uM).
As for `Cc1cc(N2CCN([C@@H]3CN[C@H](C(=O)N4CCSC4)C3)CC2)n(-c2ccccc2)n1` [teneligliptin], the TEAD-luciferase reporter activity (compound concentration: 2 uM) was inactive: 1.44.
`O=C1CCC2(CCC(=O)c3cc(Cl)ccc32)C(=O)N1` (centres undefined): the TEAD-luciferase reporter activity was inactive: -1.04 (compound concentration: 200 nM), inactive: 1.29 (compound concentration: 2 uM) and inactive: 1.21 (compound concentration: 10 uM).
The matching figures for `Nc1nc(N)c2nc(CN3CCSc4cc(C(=O)N[C@@H](CCCC(=O)O)C(=O)O)ccc43)cnc2n1`: inactive: -1.61, inactive: 0.107 and inactive: -0.987.
As for `CCN1CCN(c2ccc(Nc3cc(N(C)C(=O)Nc4c(Cl)c(OC)cc(OC)c4Cl)ncn3)cc2)CC1` [Infigratinib], the TEAD-luciferase reporter activity was inactive: -1.2 (compound concentration: 200 nM), inactive: -0.241 (compound concentration: 2 uM) and inactive: -1.05 (compound concentration: 10 uM).
As to `CCOC(=O)[C@H]1O[C@@H]1C(=O)N[C@@H](CC(C)C)C(=O)NCCC(C)C` [Aloxistatin], the TEAD-luciferase reporter activity (compound concentration: 2 uM) was inactive: -0.984.
Regarding `CCOC(=O)[C@H]1O[C@@H]1C(=O)N[C@@H](CC(C)C)C(=O)NCCC(C)C`, the TEAD-luciferase reporter activity reads like this: (compound concentration: 200 nM) inactive: -1.62; (compound concentration: 10 uM) inactive: -0.128.
For the compound `CC(=O)NCCC(=O)N1Cc2ccccc2CC2(CCCCN2CC2CCCC2)C1` (centres undefined), the TEAD-luciferase reporter activity is, setting by setting: (compound concentration: 200 nM) inactive: -1.48; (compound concentration: 10 uM) inactive: 1.45.
For `C[C@H](CSC(=O)[C@@H](C)NC(=O)C1CCCCC1)C(=O)N1CCC[C@H]1C(=O)O` [Moveltipril], the TEAD-luciferase reporter activity is inactive: 0.16 (compound concentration: 200 nM), inactive: 0.846 (compound concentration: 2 uM) and inactive: 1.51 (compound concentration: 10 uM).
For `N#CC(c1ccc(F)cc1)c1c(Cl)cc(-n2ncc(=O)[nH]c2=O)cc1Cl` (centres undefined) [Letrazuril], the TEAD-luciferase reporter activity was inactive: 1.34 (compound concentration: 200 nM), inactive: -0.255 (compound concentration: 2 uM) and inactive: -0.723 (compound concentration: 10 uM).
The matching figures for `Nc1ccc(C[C@H](NS(=O)(=O)c2cnccc2N[C@H](CO)Cc2ccccc2)C(=O)N2CCC(CCF)CC2)cc1`: inactive: 0.327, inactive: 1.01 and inactive: 0.0596.
For `O=C(O)c1cnc2n1CCc1ccccc1C2=C1CCN(CCc2ccc(OCc3ccc4ccccc4n3)cc2)CC1`, the TEAD-luciferase reporter activity by setting is: (compound concentration: 200 nM) inactive: -0.894; (compound concentration: 2 uM) inactive: -0.51; (compound concentration: 10 uM) inactive: 0.873.
In the case of `O=C(OCCN1CCCCC1)c1c[nH]c2ccccc12`, the TEAD-luciferase reporter activity (compound concentration: 200 nM) was inactive: -0.738, the TEAD-luciferase reporter activity (compound concentration: 2 uM) was inactive: 2.43 and the TEAD-luciferase reporter activity (compound concentration: 10 uM) was active: 9.48.
Take `COc1ccc(C(N)=O)cc1C(=O)NCc1cccnc1`: the TEAD-luciferase reporter activity by setting is: (compound concentration: 200 nM) inactive: 0.573; (compound concentration: 2 uM) inactive: -1.24; (compound concentration: 10 uM) inactive: 0.692.
As for `O=C(NC1CCN(c2nc3ncccc3o2)C1)C1CC1` (centres undefined), the TEAD-luciferase reporter activity is inactive: 1.97 (compound concentration: 200 nM) and inactive: -1.36 (compound concentration: 10 uM).
For `OC[C@H]1O[C@H]([S][Au])[C@H](O)[C@@H](O)[C@@H]1O` [Aurothioglucose], the TEAD-luciferase reporter activity was active: 5.35 (compound concentration: 200 nM), inactive: -0.282 (compound concentration: 2 uM) and inactive: 3.52 (compound concentration: 10 uM).
`COc1ccc(C)cc1NC(=O)Nc1nc2ccc(Nc3ncnc4cc(OCCCN5CCN(C)CC5)c(OC)cc34)cc2s1`: the TEAD-luciferase reporter activity (compound concentration: 200 nM) was inactive: -1.64, the TEAD-luciferase reporter activity (compound concentration: 2 uM) was inactive: 0.924 and the TEAD-luciferase reporter activity (compound concentration: 10 uM) is inactive: -0.855.
As for `CCCc1c(SCCCOc2ccc(C(C)=O)c(OCCCC(=O)O)c2CCC)ccc(C(C)=O)c1O` [Tipelukast], the TEAD-luciferase reporter activity (compound concentration: 200 nM) was inactive: -2.26, the TEAD-luciferase reporter activity (compound concentration: 2 uM) is inactive: -0.246 and the TEAD-luciferase reporter activity (compound concentration: 10 uM) is inactive: 2.64.
The matching figures for `CCCC[C@@H]1NC(=O)CCSSC[C@@H](C(N)=O)NC(=O)CNC(=O)[C@H](Cc2c[nH]c3ccccc23)NC(=O)[C@H](CCCNC(=N)N)NC(=O)[C@@H](Cc2ccc3ccccc3c2)NC(=O)[C@H](Cc2c[nH]cn2)NC(=O)[C@H](CCCNC(=N)N)NC1=O`: inactive: -0.706, inactive: -1.91 and inactive: -0.783.
